Measurements taken from ChEMBL document CHEMBL5352400, “Design, synthesis and biological evaluation of novel coumarin derivatives as multifunctional ligands for the treatment of Alzheimer's disease” (Eur J Med Chem, 2022).

Experiment: Effective permeability of the compound in PBS buffer at pH 7.4/EtOH buffer (7:3) incubated for 20 hrs by UV-plate spectroscopy based PAMPA-BBB assay

Compound: COc1cc2c(cc1OC)C(=O)C(CC1CCN(Cc3ccccc3)CC1)C2 (stereo unspecified) [DONEPEZIL]
- Papp at 20 h: 20.6 ×10⁻⁶ cm/s
